{"source": "PubChem BioAssay AID624297", "about": "(National Center for Advancing Translational Sciences (NCATS), 2012)", "note": "Several values for one entry are separate records, joined by “and”; a condition that tells them apart may be missing. Equal values may be shown once. The whole screen tested about 340,000 compounds, of which about 6,200 (1.8%) were called active. The inconclusive results got no clear call from the source; some entries with a clear call stand among them for comparison. Calls follow the shape of the dose curve; as a rule, active = well fitted activation curve with a large enough effect; inconclusive = small, poorly fitted or top-dose-only effect; inactive = no such curve, though single readings can be large or run the other way. Where the call is inconclusive, the potency comes from a doubtful curve fit. Potency is read from the fitted curve at half-maximal effect."}
{"test": "A quantitative high throughput screen for small molecules that induce DNA re-replication in SW480 colon adenocarcinoma cells; also: nearly all actives have a fitted effect of over 55% in size; as to re-replication activation: % of control where 0% means no effect.", "conditions": "Hoechst DNA content imaging, 48 h; re-replication activation: at 46.1 µM (top of the series) unless noted", "summary_of_the_method": "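Per well, 250 cells were exposed to pinned compound for 48 hr. Nuclear DNA was visualised with Hoechst (40 min, 37 C) and total object intensity recorded by fluorescence scanning.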"}
{"compound": "N#C/C(=N\\O)c1nc2ccccc2s1", "re-replication activation": "inactive: -0.162%"}
{"compound": "Cc1cc(S(=O)(=O)Nc2ccc3ccccc3c2)c(C)s1", "Potency": "inconclusive: 18.4 µM [activator, single point]"}
{"compound": "CC1CC(C)CN(CC(O)COCc2ccccc2F)C1", "note": "(centres undefined)", "re-replication activation": "inactive: -7.43%"}
{"compound": "C[C@H]1COC(=O)[C@H](NC(=O)OCC2c3ccccc3-c3ccccc32)C/C=C\\C[C@H](CC(=O)N(CCO)Cc2ccccc2)C(=O)N1", "Potency": "inconclusive: 3.66 µM [activator, single point]"}
{"compound": "CCO[C@H]1OC(C(=O)N2CCOCC2)=C[C@@H](c2cn(C(C)=O)c3ccccc23)[C@@H]1CCCO", "Potency": "inconclusive: 6.51 µM [activator, single point]"}
{"compound": "CC(N=Cc1cccc(O)c1O)c1ccccc1", "note": "(centres undefined)", "Potency": "active: 8.2 µM"}
{"compound": "Cc1ccc(-c2csc(N/N=C/C=C/c3ccccc3)n2)cc1", "re-replication activation": "inactive: 4.32%"}
{"compound": "CCN(C[C@H]1N[C@@](CC)(C(=O)OC)[C@H]2C(=O)N(C)C(=O)[C@@H]12)C(=O)c1ccccc1", "re-replication activation": "inactive: -7.2%"}
{"compound": "Cc1ccccc1C(=O)Nc1nnc(CC(=O)N/N=C/c2cn(Cc3ccccc3)c3ccccc23)s1", "Potency": "active: 20.6 µM"}
{"compound": "CC(C)CNC(=S)N(Cc1ccco1)Cc1cc2cc3c(cc2[nH]c1=O)OCCO3", "Potency": "inconclusive: 29.1 µM [activator, single point]"}
{"compound": "COc1ccccc1-n1cc(CN2CCN(CC(C)C)C(CCO)C2)cn1", "note": "(centres undefined)", "Potency": "inconclusive: 0.206 µM [activator, single point]"}
{"compound": "FC(F)(Cl)c1nnc2ccc(Cl)nn12", "Potency": "inconclusive: 18.4 µM [activator, single point]"}
{"compound": "Cc1ccc(C)c(NC(=O)CSc2nc3nc(-c4cccs4)cc(C(F)(F)F)c3c(=O)[nH]2)c1", "re-replication activation": "inactive: -3.42%"}
{"compound": "O=C(CSc1n[nH]c(-c2ccco2)n1)Nc1ccc(F)cc1", "Potency": "inconclusive: 29.1 µM [activator, single point]"}
{"compound": "O=C1CCNc2cc3ccccc3cc21", "Potency": "inconclusive: 18.4 µM [activator, single point]"}
{"compound": "O=C(C[n+]1cc(-c2ccc(F)cc2)n2c1CCC2)c1cccs1", "Potency": "inconclusive: 0.0058 µM [activator, full curve, poor fit]"}
{"compound": "COc1ccc(-c2[nH]c(-c3ccc(Cl)cc3)nc2SCC(=O)Nc2nccs2)cc1", "re-replication activation": "inactive: -0.113%"}
{"compound": "COc1ccc(/C=N/Nc2ccc(C(=O)O)cc2)cc1Br", "Potency": "inconclusive: 10.3 µM [activator, partial curve, poor fit]"}
{"compound": "Cc1nc(-c2ccc(S(=O)(=O)Oc3ccccc3Cl)s2)cs1", "Potency": "inconclusive: 20.6 µM [activator, single point]"}
{"compound": "CCCCCCC1CC(CSC(=N)N)OC1=O", "note": "(centres undefined)", "re-replication activation": "inactive: -7.26%"}
{"compound": "C[C@]12CCC[C@H](O1)[C@H]([C@@H](O)c1ccccc1)O2", "re-replication activation": "inactive: -3.26%"}
{"compound": "CCN(CC)c1ccc(/C=C(\\C#N)c2ccccn2)cc1", "Potency": "active: 14.6 µM"}
{"compound": "CCCCc1ccc(NC(=O)CSc2nnc(CNC(=O)c3ccco3)o2)cc1", "Potency": "inconclusive: 18.4 µM [activator, partial curve, poor fit]"}
{"compound": "N#C/C(=C/c1ccc(Oc2ccc([N+](=O)[O-])cn2)cc1)C(=O)N1CCOCC1", "re-replication activation": "inactive: 1.26%"}
{"compound": "Nc1nc(SCc2ccc(Cl)c(Cl)c2)n[nH]1", "re-replication activation": "inactive: 4.77%"}
{"compound": "CCOC(=O)c1[nH]c(C)c(C(=O)Nc2ccc(C)c(C)c2)c1C", "Potency": "inconclusive: 18.4 µM [activator, single point]"}
{"compound": "CC(C)C(=O)Nc1ccc(N2CCCC2)c(Cl)c1", "re-replication activation": "inactive: 13.4%"}
{"compound": "O=C(COC(=O)C1CCCO1)Nc1cccc(C(F)(F)F)c1", "note": "(centres undefined)", "Potency": "inconclusive: 2.91 µM [activator, partial curve, poor fit]"}
{"compound": "CCN1CCN(c2cc(C)c3cc(NC(=O)c4cccnc4Cl)ccc3n2)CC1", "Potency": "inconclusive: 29.1 µM [activator, single point]"}
{"compound": "COc1ccccc1/C=C/C(=O)NNC(=O)c1cccs1", "re-replication activation": "inactive: 3.88%"}
{"compound": "CCCCC(=O)Nc1cccc(-c2nnc(-c3ccccc3)o2)c1", "re-replication activation": "inactive: -6.9%"}
{"compound": "O=C(NC(=S)Nc1ccc2cn[nH]c2c1)c1ccccc1", "Potency": "inconclusive: 32.6 µM [activator, partial curve, poor fit]"}
{"compound": "OCCOc1cccc(CN2CCC(CO)(CCOc3ccccc3)CC2)c1", "Potency": "active: 18.4 µM"}
{"compound": "CC(C)(C)c1nnc(NC(=O)CCS(=O)(=O)c2ccccc2)s1", "Potency": "inconclusive: 29.1 µM [activator, single point]"}
{"compound": "Cc1[nH]nc2c1C(c1ccco1)C(C#N)=C(N)O2", "note": "(centres undefined)", "re-replication activation": "inactive: 12.6%"}
{"compound": "COCCCNc1nc2ccccc2nc1NS(=O)(=O)c1ccc(Cl)cc1", "re-replication activation": "inactive: -9.46%"}
{"compound": "CCc1ccccc1NC(=O)CN1CCN(C(=O)C2CCN(C(=O)/C=C/c3ccccc3)CC2)CC1", "re-replication activation": "inactive: -13.2%"}
{"compound": "CN(/N=C/c1ccc(O)cc1O)c1nc(-c2ccccc2)cc(-c2ccccc2)n1", "Potency": "inconclusive: 29.1 µM [activator, single point]"}
{"compound": "CCOC(=O)c1nnn(-c2nonc2-n2cccc2)c1CN1CCC(C)CC1", "Potency": "inconclusive: 29.1 µM [activator, partial curve, poor fit]"}
{"compound": "O=C(O)CN(CCOCCOCCN(CC(=O)O)CC(=O)O)CC(=O)O", "re-replication activation": "inactive: -1.68%"}
{"compound": "NC(=O)c1cc(-c2ccccc2)nc2ccc(Br)cc12", "Potency": "inconclusive: 32.6 µM [activator, single point]"}
{"compound": "CC1CCN(C(C(=O)NC2CCCCC2)c2cc3c(cc2[N+](=O)[O-])OCO3)CC1", "note": "(centres undefined)", "Potency": "inconclusive: 29.1 µM [activator, single point]"}
{"compound": "O=c1nc(/C=C/c2ccccc2C(F)(F)F)cc(C(F)(F)F)[nH]1", "Potency": "inconclusive: 29.1 µM [activator, single point]"}
{"compound": "c1ccc(-c2noc(C3CCC3)n2)nc1", "re-replication activation": "inactive: 1.47%"}
{"compound": "O=C1CSC(=S)N1c1cccnc1", "Potency": "inconclusive: 23.1 µM [activator, partial curve, poor fit]"}
{"compound": "CSCCC(NC(=O)c1ccccc1Br)C(=O)NNC(=O)c1csc(N2CCOCC2)n1", "note": "(centres undefined)", "Potency": "inconclusive: 6.51 µM [activator, single point]"}
{"compound": "CCOC(=O)Cn1nc(C)c([N+](=O)[O-])c1C", "Potency": "inconclusive: 0.82 µM [activator, partial curve, poor fit]"}
{"compound": "CCC(C)NC(=O)C1c2ccccc2C(=O)N1Cc1cc(OC)ccc1OC", "note": "(centres undefined)", "re-replication activation": "inactive: 0.803%"}
{"compound": "Cc1ccc(C(=O)OCC(=O)Nc2cc(C(C)(C)C)nn2-c2ccccc2)c(O)c1", "re-replication activation": "inactive: -57.7%"}
{"compound": "ON/C=N/C(=S)Nc1ncc(C(F)(F)F)cc1Cl", "re-replication activation": "inactive: -4.28%"}
{"compound": "CC(=O)c1c(C(C)=O)c(C)n(Cc2ccccc2)c1C", "re-replication activation": "inactive: -7.01%"}
{"compound": "COC(=O)C1=C(C(=O)OC)SC(=C2C(=S)C(C)(C)N(C(=O)C(C)C)c3ccccc32)S1", "re-replication activation": "inactive: 20.8%"}
{"compound": "Cc1ccc(S(=O)(=O)NC(=O)NC2CCCCCCC2)cc1", "re-replication activation": "inactive: -0.975%"}
{"compound": "CCc1ccc(C(=O)c2oc3nc(C)cc(C)c3c2N)cc1", "Potency": "active: 16.4 µM"}
{"compound": "CCCCN(C(=O)c1ccc2c(c1)NC(=O)CS2)c1ccccc1", "re-replication activation": "inactive: -10.2%"}
{"compound": "O=C(CSc1nc(=O)n(Cc2ccccn2)c2c1CCC2)Nc1ccc(F)cc1F", "re-replication activation": "inactive: -585%"}
{"compound": "CCOC(=O)c1c(-c2ccc(C)cc2)csc1NC(=O)/C(C#N)=C/c1ccc(O)c(OC)c1", "Potency": "inconclusive: 14.6 µM [activator, single point]"}
{"compound": "CCC1(C)Cc2c(sc3nnn(CC(=O)Nc4cccc5ccccc45)c(=O)c23)CO1", "note": "(centres undefined)", "Potency": "inconclusive: 18.4 µM [activator, partial curve, poor fit]"}
{"compound": "COc1cc(OC)c2c(-c3cccc(-c4ccc(C#N)cc4)c3)cc(=O)oc2c1", "Potency": "inconclusive: 0.164 µM [activator, full curve, poor fit]"}
{"compound": "O=C(/C=C/c1ccco1)Nc1ccc(-c2nc3ccccc3[nH]2)cc1", "Potency": "inconclusive: 16.4 µM [activator, single point]"}
{"compound": "CCN1C(=O)[C@@H]2[C@@H](c3ccc(-c4ccc(C(C)=O)cc4)cc3)N3CCCC[C@@]3(C(=O)OC)[C@@H]2C1=O", "Potency": "inconclusive: 6.51 µM [activator, single point]"}
{"compound": "Cc1ccc(/C=C2/CNC/C(=C/c3ccc(C)cc3)C2=O)cc1", "Potency": "active: 4.61 µM"}
{"compound": "CCOc1ccc(N(CC(=O)Nc2ccccc2OCC)S(=O)(=O)c2c(C)noc2C)cc1", "Potency": "active: 5.8 µM"}
{"compound": "O=C(/C=C/c1ccccc1F)N1CCN(c2ccccn2)CC1", "re-replication activation": "inactive: -1.7%"}
{"compound": "NC(=O)c1ccc(N=Cc2ccc([N+](=O)[O-])s2)cc1", "Potency": "active: 3.26 µM"}
{"compound": "COC(=O)[C@H]1[C@H]2C[C@@H]3c4[nH]c5cc(OC)ccc5c4CCN3C[C@H]2C[C@@H](OC(=O)c2cc(OC)c(OC)c(OC)c2)[C@@H]1OC", "Potency": "inconclusive: 29.9 µM [activator, single point] and inconclusive: 11.2 µM [activator, partial curve, poor fit]"}
{"compound": "Cc1ccc(CN(C)CC(=O)NC(C)c2ccccc2)cc1", "note": "(centres undefined)", "Potency": "inconclusive: 22.4 µM [activator, single point]"}
{"compound": "COc1ccc(C(CNC(=O)C(C)Sc2ccccc2)N2CCOCC2)cc1", "note": "(centres undefined)", "Potency": "inconclusive: 6.51 µM [activator, partial curve, poor fit]"}
{"compound": "COCCN(C(=S)Nc1ccc(C)cc1)C(C)c1ccco1", "note": "(centres undefined)", "re-replication activation": "inactive: -0.502%"}
{"compound": "COc1cc(C(C)=O)ccc1OCC(O)CN1CCN(c2cc(C)cc(C)c2)CC1", "note": "(centres undefined)", "re-replication activation": "inactive: -5.9%"}
{"compound": "c1ccc(CN2CCC(=NNc3nc4ccccc4[nH]3)CC2)cc1", "Potency": "active: 23.1 µM"}
{"compound": "COC(=O)Cc1c[nH]c2cccc(OCC(O)CN(Cc3ccc([N+](=O)[O-])cc3)C(C)(C)C)c12", "note": "(centres undefined)", "re-replication activation": "inactive: 8.03%"}
{"compound": "COc1cc(C2Nc3ccc4ncccc4c3C3=C2C(=O)CCC3)ccc1O", "note": "(centres undefined)", "Potency": "active: 20.6 µM"}
{"compound": "O=C(CN(C1CCCCC1)C1CCCCC1)N1CCc2ccccc2C1", "Potency": "inconclusive: 29.1 µM [activator, single point]"}
